Values joined by “and” are separate entries in the source; they are usually repeats but may differ in a detail not shown here. Equal values may be shown once. The list shows a part of the results. Single values are uncertain, as repeats are few or missing.

Data on 40 compounds can be found in the supplement of paper PMC12873370.

The subject of the first assay is MEPP (mouse ovarian epithelium Trp53/Pten KO). Kind of assay: cell viability relative to untreated (fraction); higher = less growth inhibition. Particulars: 5 µM; 3 days.
As for `COc1cc([C@@H]2c3cc4c(cc3[C@@H](O[C@@H]3O[C@@H]5CO[C@@H](C)O[C@H]5[C@H](O)[C@H]3O)[C@H]3COC(=O)[C@H]23)OCO4)cc(OC)c1O`, the cell viability came to 0.851. Compound `COc1ccc([C@@H]2CC(=O)c3c(O)cc(O[C@@H]4O[C@H](CO)[C@@H](O)[C@H](O)[C@H]4O[C@@H]4O[C@@H](C)[C@H](O)[C@@H](O)[C@H]4O)cc3O2)cc1O` had a cell viability of 1.38. `COc1ccc([C@@H]2CC(=O)c3c(O)cc(O)cc3O2)cc1O` gave a cell viability of 1.4. On to `O=c1cccc[nH]1`, for which the cell viability stood at 0.987.

The next assay has as its system PREPP (mouse prostate epithelium Trp53/Pten KO). The description is as above. The conditions noted are these: 5 µM; 3 days.
Compound `Cn1c(=O)c2c(ncn2CC(=O)O)n(C)c1=O` gave a cell viability of 0.985. The same measure, in the same setting: with `O=C1C[C@@H](C(=O)O)NC(=O)N1` the figure was 0.956. With `O=C(Oc1cc(S(=O)(=O)c2ccccc2)ccc1[N+](=O)[O-])c1ccc(Cl)cc1`, the cell viability is 1.07. `CO[C@@H]1[C@H](OC(=O)/C=C/C=C/C=C/C=C/C(=O)O)CC[C@]2(CO2)[C@H]1[C@@]1(C)O[C@@H]1CC=C(C)C` showed a cell viability of 0.802. Same read-out and setting: to `CC(C)NCC(O)c1ccc(O)c(O)c1` (centres undefined) belongs 0.952 and 1.01; to `CC1(C)S[C@@H]2[C@H](NC(=O)[C@H](N)c3ccccc3)C(=O)N2[C@H]1C(=O)OCOC(=O)[C@@H]1N2C(=O)C[C@H]2S(=O)(=O)C1(C)C`, 0.971 and 0.99; to `Cc1ccccc1C(=O)O`, 0.924. As for `CNC1CCCN(c2c(F)cc3c(=O)c(C(=O)O)cn(C4CC4)c3c2OC)C1` (centres undefined), the cell viability came to 1.02. `CCC(C)C(NC(=O)C(C(C)CC)N(C)C(C)=O)C(=O)NC(C(=O)NC(CC(C)C)C(=O)C1(C)CO1)C(C)O` (centres undefined) registered a cell viability of 0.618. Compound `COc1ccc(Cc2cnc(N)nc2N)cc1OC` showed a cell viability of 0.912. Same read-out and setting: to `OC[C@H]1O[C@H](OC[C@H]2O[C@H](O[C@]3(CO)O[C@H](CO)[C@@H](O)[C@@H]3O)[C@H](O)[C@@H](O)[C@@H]2O)[C@H](O)[C@@H](O)[C@H]1O` belongs 0.868; to `CC[C@H](C)C(=O)O[C@H]1C[C@@H](C)C=C2C=C[C@H](C)[C@H](CC[C@@H]3C[C@@H](O)CC(=O)O3)[C@H]21`, 0.64; to `C[C@H](O)[C@@H](O)[C@@H](O)[C@H](O)C=O`, 0.703. `CC(C)(O)C(=O)O` returned a cell viability of 0.87. For the compound `Cc1ccc2oc(=O)ccc2c1`, the cell viability is 1.03. Take `Cc1cc(O)cc(O)c1`: the cell viability worked out at 1.05. For `CC1=CC(=O)CC(C)(C)C1(O)/C=C/C(C)=C\C(=O)O` (centres undefined), the cell viability was 0.97. Compound `NC(=O)N1c2ccccc2CC(=O)c2ccccc21` returned a cell viability of 0.875. In the case of `OC[C@H]1OC(O)[C@@H](O)[C@@H](O)[C@@H]1O` (some centres undefined), the cell viability was 0.998. Compound `CN[C@H](CC(C)C)C(=O)N[C@H]1C(=O)N[C@@H](CC(N)=O)C(=O)N[C@H]2C(=O)N[C@H]3C(=O)N[C@H](C(=O)N[C@H](C(=O)O)c4cc(O)cc(O)c4-c4cc3ccc4O)[C@H](O)c3ccc(c(Cl)c3)Oc3cc2cc(c3O[C@@H]2O[C@H](CO)[C@@H](O)[C@H](O)[C@H]2O[C@H]2C[C@](C)(N)[C@H](O)[C@H](C)O2)Oc2ccc(cc2Cl)[C@H]1O` gave a cell viability of 0.916.

For the compound `O=C1O[C@@H]2[C@@H](OC(=O)c3cc(O)c(O)c(O)c3-c3c1cc(O)c(O)c3O)[C@H](O)O[C@@H]1COC(=O)c3cc(O)c(O)c(O)c3-c3c(O)c(O)c4oc(=O)c5c(c(O)c(O)c6oc(=O)c3c4c65)-c3c(cc(O)c(O)c3O)C(=O)O[C@@H]21`, the cell viability was determined as 0.794.

Take `NCCCC(N)C(=O)O` (centres undefined): the cell viability came to 0.937. With `CN1CCN(c2c(F)cc3c(=O)c(C(=O)O)cn4c3c2OCN4C)CC1`, the cell viability was 0.814.

As for `Cc1cnc(C)cn1`, the cell viability stood at 0.923. With `CC(O)C(=O)O` (centres undefined), the cell viability came out at 0.863. As for `C=CC1=C(C)/C(=C/c2[nH]c(Cc3[nH]c(/C=C4\NC(=O)C(C)=C4C=C)c(C)c3CCC(=O)O)c(CCC(=O)O)c2C)NC1=O`, the cell viability came to 1.01. In turn, `CCCC(N)C(=O)O` (centres undefined) registered a cell viability of 0.982. The same measure, in the same setting: to `O=C(/C=C/c1ccc(O[C@@H]2O[C@H](CO)[C@@H](O)[C@H](O)[C@H]2O)cc1)c1ccc(O)cc1O` belongs 0.889.

Consider `O=C[C@H](O)[C@H]1OC(=O)[C@@H](O)[C@H]1O`, for which the cell viability stood at 0.96. For `C[C@@]1(F)[C@H](O)[C@@H](CO)O[C@H]1n1ccc(=O)[nH]c1=O`, the cell viability stood at 0.847. Same read-out and setting: to `C/C1=C\CC(C)(C)/C=C/C(=O)/C(C)=C/CC1` belongs 0.945; to `CC1OC(OC2C(OC3CCC4(C)C(CCC5(C)C4CC=C4C6CC(C)(C)CCC6(C(=O)OC6OC(COC7OC(CO)C(O)C(O)C7O)C(O)C(O)C6O)CCC45C)C3(C)CO)OCC(O)C2O)C(O)C(O)C1O` (centres undefined), 1.01. Compound `CC(/C=C/C=C(\C)C(=O)O[C@@H]1O[C@H](CO[C@@H]2O[C@H](CO)[C@@H](O)[C@H](O)[C@H]2O)[C@@H](O)[C@H](O)[C@H]1O)=C\C=C\C=C(C)\C=C\C=C(/C)C(=O)O[C@@H]1O[C@H](CO[C@@H]2O[C@H](CO)[C@@H](O)[C@H](O)[C@H]2O)[C@@H](O)[C@H](O)[C@H]1O` showed a cell viability of 0.956. `Cc1cc(O)cc(O[C@@H]2O[C@H](CO)[C@@H](O)[C@H](O)[C@H]2O)c1` showed a cell viability of 0.909. `CC(=O)CCCCn1c(=O)c2c(ncn2C)n(C)c1=O` returned a cell viability of 0.578.

As for `CC[C@H]1OC(=O)C[C@@H](O)[C@H](C)[C@@H](O[C@@H]2O[C@H](C)[C@@H](O[C@H]3C[C@@](C)(O)[C@@H](O)[C@H](C)O3)[C@H](N(C)C)[C@H]2O)[C@@H](CC=O)C[C@@H](C)C(=O)/C=C/C(C)=C/[C@@H]1CO[C@@H]1O[C@H](C)[C@@H](O)[C@@H](OC)[C@H]1OC`, the cell viability came out at 0.919. As for `COc1cc([C@@H]2c3cc4c(cc3[C@@H](O[C@@H]3O[C@@H]5CO[C@@H](C)O[C@H]5[C@H](O)[C@H]3O)[C@H]3COC(=O)[C@H]23)OCO4)cc(OC)c1O`, the cell viability is 0.831. As for `COc1ccc([C@@H]2CC(=O)c3c(O)cc(O[C@@H]4O[C@H](CO)[C@@H](O)[C@H](O)[C@H]4O[C@@H]4O[C@@H](C)[C@H](O)[C@@H](O)[C@H]4O)cc3O2)cc1O`, the cell viability came to 1.06.

`COc1ccc([C@@H]2CC(=O)c3c(O)cc(O)cc3O2)cc1O` came in with a cell viability of 1.35.

For `O=c1cccc[nH]1`, the cell viability was determined as 0.996.
